# Data: PubChem BioAssay AID595 (National Center for Advancing Translational Sciences (NCATS), 2007)
# Out of some 71,000 compounds screened, about 310 (0.44%) were called active. This list was built around the results that the source calls inconclusive (neither active nor inactive); the mix of calls is not that of the screen. Calls follow the shape of the dose curve; as a rule, active = well fitted curve in either direction with a large enough effect; inconclusive = small, poorly fitted or top-dose-only effect, or another doubt; inactive = flat fitted curve, though single readings scatter. Where the call is inconclusive, the potency comes from a doubtful curve fit.
# System: Hsp90 C-terminal peptide / TPR2A (Hop) interaction, human
# Experiment: qHTS Assay for Disrupters of an Hsp90 Co-Chaperone Interaction
# Settings: AlphaScreen TPR2A-His6 binding biotin-Hsp90 C-terminal peptide; activity change, negative = inhibition: at 57 µM (top of the series) unless noted
# % is scaled to controls: 0 for no effect and ±100 for the full control effect; potency is read from the fitted curve at half-maximal effect.
SMILES,Potency,"activity change, negative = inhibition"
NCCC[C@@H](CC(=O)N[C@@H]1CCNC[C@H]1C(=O)N[C@H](CC(=O)N[C@@H](CCC(=O)O)CC(=O)O)Cc1ccccc1)NC(=O)C[C@H](CO)NC(=O)[C@@H]1CNCC[C@H]1N,active: 31.6 µM,–
CCOc1cccc2cc(-c3cn4cc(C)ccc4n3)c(=O)oc12,–,inactive: 6.45%
COC(=O)c1ccc(C(NC(=O)OCc2ccccc2)/C(C)=C/[C@@H](C)C(=O)NCCc2c[nH]c3ccc(OC)cc23)cc1 (stereo partly drawn),–,inactive: -9.73%
CC(=O)[C@H]1[C@H]2[C@H](C(=O)[C@@H]3OC[C@H]2O3)[C@@H]2c3ccccc3C=CN12,"inconclusive: 31.6 µM [inhibitor, partial curve]",–
O=S(=O)(c1ccc2nc(-c3ccco3)c(-c3ccco3)nc2c1)N1CCOCC1,–,inactive: -22.9%
O=C(COC(=O)c1cccc(NC(=O)c2ccco2)c1)c1ccc(Br)cc1,–,inactive: -0.808% [at 11 µM]
CCc1ccc(C(=O)COC(=O)CNC(=O)c2ccco2)cc1,–,inconclusive: 57.4% [at 11 µM]
CC(C)(C)NCC(O)COc1ccccc1C(C)(C)C (stereo not drawn),–,inactive: -1.58%
O=C(c1ccc(C23CC4CC(CC(C4)C2)C3)o1)N1CCOCC1,–,inactive: -8.93%
CCSc1nnc(NC(=O)CSc2nc3c(c(=O)n2C)SC(C)C3)s1 (stereo not drawn),–,inactive: -12.9%
CCOCCCNC(=O)C1CCN(S(=O)(=O)CC)CC1,–,inconclusive: 53.7%
COc1ccccc1CC(NC(C)=O)C(=O)NC1CCN(c2nnnn2-c2ccccc2)CC1 (stereo not drawn),–,inconclusive: 55.2%
Nc1cc(Br)c(N)c(Br)c1,–,inconclusive: 56.1%
COc1ccc(O)c(C(=O)c2cc(C#N)c(=O)n(-c3c(C)n(C)n(-c4ccccc4)c3=O)c2)c1,–,inconclusive: 38.1%
CCCCn1c(=NC(=O)c2cccnc2)c(C(=O)OCC)cc2c(=O)n3ccccc3nc21,–,inactive: -5.79%
O=C(c1cccc(F)c1)N1CCC[C@@]2(CCN(C(c3ccccc3)c3ccccc3)C2)C1,–,inconclusive: 62.1%
Cc1ccc2nsnc2c1S(=O)(=O)N1CCN(C(=O)C2CCCO2)CC1 (stereo not drawn),–,inconclusive: 49.2%
O=C(Cn1cnc2ccccc2c1=O)NCCC(=O)Nc1ccc2c(c1)OCCO2,–,inactive: -2.35%
N#Cc1c(N)sc(=S)c2c1CCN(Cc1ccccc1)C2,"inconclusive: 25.1 µM [inhibitor, partial curve]",–
COC(=O)CSc1nnc(-c2cccc(NC(=O)c3ccc(C)cc3)c2)n1C,–,inconclusive: 47%
Cc1ccc(-c2nc(C#N)c(N3CCCCC3)o2)cc1,"inconclusive: 12.6 µM [inhibitor, partial curve]",–

SMILES,Potency,"activity change, negative = inhibition"
CS(=O)(=O)c1sc2nc(-c3cccs3)cc(-c3ccccc3)c2c1N,"inconclusive: 12.6 µM [activator, partial curve]",–
COc1cccc(Cn2c(=O)c(-c3ccccc3)nc3cnc(N(C)C)nc32)c1,active: 10 µM [activator],–
Brc1ccccc1-c1nc(-c2ccccc2)no1,"inconclusive: 3.98 µM [activator, single point]",–
O=C(OCc1c(Cl)nc2sccn12)c1cc2c(s1)CCCC2,–,inconclusive: 46%
CC(NC(=O)Cc1ccccc1)c1nc2ccccc2[nH]1 (stereo not drawn),–,inactive: -1.86%
Cc1csc(NC(=O)c2sc3nc(-c4cccs4)ccc3c2N)n1,"inconclusive: 20 µM [activator, partial curve]",–
Cc1nn(C)cc1CNC(=O)c1cnn2c1NC(c1ccc(Br)cc1)CC2C(F)(F)F (stereo not drawn),–,inconclusive: 68%
COc1cc(/C=C/c2ccccc2)oc(=O)c1,–,inconclusive: 48.2%
Cc1nc2nc(-c3ccco3)nn2c(C)c1Cl,–,inactive: -2.9%
Cc1ccc(C)c2[nH]c(=O)c(C(c3nnnn3Cc3ccco3)N3CCc4ccccc4C3)cc12 (stereo not drawn),–,inconclusive: 27.5%
COc1ccc(-n2c(=O)c(CCc3ccccc3)nc3cnc(N(C)C)nc32)cc1,–,inactive: -4.38%
CN(C(=O)COc1nnc(-c2cccs2)c(-c2cccs2)n1)c1ccccc1,–,inconclusive: 4.66%
COCCCN=CC1=C(O)CC(C)(C)CC1=O,–,inconclusive: 57.1%
COc1ccc2c(c1)Sc1ccccc1N2CCN(C)C,–,inconclusive: 46.1%
Cc1cccc(OCc2nnc(SCC(=O)c3ccccc3)o2)c1,"inconclusive: 31.6 µM [activator, single point]",–
COc1ccc(NC(=O)N2CC[C@@]3(CCCN(C(=O)c4ccc(OC)cc4)C3)C2)cc1,–,inactive: -0.947%
COc1cc(S(=O)(=O)N2CCC(O)(c3cccc(C(F)(F)F)c3)CC2)ccc1-n1cnnn1,–,inactive: 62.9%
CN=c1scc(C)n1/N=C/c1ccc2c(c1)OCO2,"inconclusive: 25.1 µM [inhibitor, partial curve]",–
CCOC(=O)N1CCN(CC(=O)n2c(C)c(C)c3ccccc32)CC1,–,inconclusive: 52.9%
O=C(/C=C/Nc1ccccc1Br)c1ccccn1,"inconclusive: 31.6 µM [inhibitor, single point]",–
C=CCn1c(=O)/c(=C/c2ccc(C)o2)s/c1=C(/C#N)C(=O)c1ccccc1,"inconclusive: 25.1 µM [inhibitor, single point]",–

SMILES,Potency,"activity change, negative = inhibition"
Cc1ccc(C(=O)N2CCN(c3ccccc3)CC2)cc1C,–,inconclusive: 47.5%
O=S(=O)(c1ccc(SCCO)nc1)N1CCCC1,–,inactive: -3.03%
Cn1c(=O)c2c(-c3ccccc3)n(-n3cnnc3)cc2n(C)c1=O,–,inactive: -20.8%
CC(C)(C)NC(=O)C(c1ccncc1)N(Cc1cccs1)C(=O)Cn1nnc(-c2cccs2)n1 (stereo not drawn),–,inactive: -8%
C/C=C/CSc1nc2c(c(=O)[nH]c(=O)n2C)n1Cc1ccc(C)cc1,–,inactive: -6.74%
O=C(Nc1cccnc1)c1ccc(NC(=O)c2ccco2)cc1,–,inactive: -1.46%
COc1cccc(-c2nnc(SCC(=O)Nc3cc(C)on3)o2)c1,"inconclusive: 31.6 µM [inhibitor, single point]",–
c1ccc2c(c1)C(=NCC1CCCO1)NC2=NCC1CCCO1 (stereo not drawn),–,inactive: -0.605%
CC(C)[C@@H](CC(=O)N[C@@H]1CCNC[C@H]1C(=O)N[C@H](CC(=O)N[C@@H](CCC(=O)O)CC(=O)O)Cc1c[nH]c2ccccc12)NC(=O)C[C@H](CO)NC(=O)[C@@H]1CNCC[C@H]1N,active: 31.6 µM,–
CCCC(=O)Nc1ccc(OC[C@@H](O)CNC(C)C)c(C(C)=O)c1,–,inactive: 2.12% [at 26 µM]
CCCCNc1nc(C)nc2c1nc(-c1ccccc1)n2CCN(C)C,–,inactive: -3.39%
O=C(CSc1nc2sc3c(c2c(=O)[nH]1)CCCC3)NCCO,–,inconclusive: 47.4%
CN(Cc1ccco1)c1ncncc1-c1ccccc1Cl,"inconclusive: 31.6 µM [inhibitor, single point]",–
COc1ccc(C(=O)NCc2nnc(SCC(=O)Nc3cccc(C(F)(F)F)c3)o2)cc1OC,–,inconclusive: 40.4%
CCOc1ccc(NC(=O)N2CCC(n3c(=O)[nH]c4ccccc43)CC2)cc1,–,inconclusive: 45.8% [at 2.3 µM]
COc1ccccc1Nc1nc(N)nc(CN2CCC(Cc3ccccc3)CC2)n1,–,inactive: -14.1%
Cc1nn(-c2nnc(C)c(=O)[nH]2)c(C)c1SCC(=O)Nc1ccc(C(C)C)cc1,"inconclusive: 31.6 µM [inhibitor, single point]",–
O=C(NCCN1CCN(c2ccccc2F)CC1)C1c2ccccc2C(=O)N2CCc3ccccc3C12 (stereo not drawn),–,inconclusive: 32.7%
CCOC(=O)Cc1csc(NC(=O)CSc2nnc(-c3ccncc3)n2Cc2ccco2)n1,–,inconclusive: 47.4%
COc1ccc(-c2cc(C(=O)NCc3ccccc3)no2)cc1OC,–,inconclusive: 37.7%
C=CCOc1c(Cl)cc(/C=N/O)cc1OC,–,inconclusive: 51.9% [at 11 µM]

# A few values from above:
# Entry for CC(C)(C)NC(=O)C(c1ccncc1)N(Cc1cccs1)C(=O)Cn1nnc(-c2cccs2)n1 (stereo not drawn) under activity change, negative = inhibition: inactive: -8%
# Entry for CCCCNc1nc(C)nc2c1nc(-c1ccccc1)n2CCN(C)C under activity change, negative = inhibition: inactive: -3.39%

# Next part:

SMILES,Potency,"activity change, negative = inhibition"
O=C(O)CCSc1nc2ccccc2c(=O)[nH]1,–,inconclusive: 45.7%
CN1CCN(c2ncc3nc(-c4ccccc4)c(=O)n(CCc4ccccc4)c3n2)CC1,"inconclusive: 20 µM [activator, partial curve]",–
COC(=O)C1=C(C)N(C)C(=O)NC1c1ccccc1 (stereo not drawn),–,inconclusive: 81.5%
Cc1cc(N)c2cc(NC(=O)Nc3ccc4nc(C)cc(N)c4c3)ccc2n1,"inconclusive: 3.16 µM [inhibitor, single point]",–
Cc1ccc(NC(=O)c2ccccc2O)cc1,–,inactive: 3.48%
CCOC(=O)C1CCN(Cc2ccc(O)c3ncccc23)CC1,active: 5.01 µM,–
CCOc1ccc2cc(S(=O)(=O)N3CCOCC3)ccc2c1,–,inactive: -5.04%
Nc1nc(-c2ccccc2)c(-c2ccccc2)c(-c2nc(N)nc(-c3ccccc3)c2-c2ccccc2)n1,–,inconclusive: 85.4% [at 11 µM]
COCC(C)NC(=O)CCS(=O)(=O)c1nc(-c2ccc(OC)cc2)cc(C(F)(F)F)n1 (stereo not drawn),–,inconclusive: 57%
O=C(CCCC(=O)N(CC(=O)NC1CCCC1)Cc1ccccc1Cl)Nc1ccccn1,–,inconclusive: 31.7%
COc1cccc(OCCCCSc2ncccn2)c1,–,inconclusive: 86.6%
Nc1nnc(CCS(=O)(=O)c2cc(Cl)ccc2Cl)s1,–,inconclusive: 45.1%
CC1CCc2sc3nc(NCc4ccco4)n4ncnc4c3c2C1 (stereo not drawn),–,inactive: 1.1%
Cc1cc(NC(=O)c2cc(-c3ccccn3)nc3ccccc23)no1,–,inactive: -3.64%
OCc1n[nH]c(CO)n1,–,inconclusive: 38.9%
CC(=O)n1cc(C2C(=O)CCCC2=O)c2ccccc21,–,inactive: -1.19%
CCN(CC)C(=O)N1CCC(NC(=O)Cc2ccccc2)CC1,–,inconclusive: 61.5%
Cc1cccc(-n2c(SCC(=O)Nc3nnc(C)s3)nnc2-c2ccoc2C)c1,"inconclusive: 20 µM [inhibitor, partial curve]",–
CCOc1ccc(-c2nnc3ccc(SCc4ccc(C(=O)OC)o4)nn23)cc1,–,inactive: 0.782%
CCCn1nc(NC(=O)c2ccncc2)c2cc3ccccc3nc21,–,inactive: 3.06%

# Shown with bars between the fields: three of the compounds above
SMILES | Potency | activity change, negative = inhibition
Cc1nc2nc(-c3ccco3)nn2c(C)c1Cl | – | inactive: -2.9%
Cc1ccc(C)c2[nH]c(=O)c(C(c3nnnn3Cc3ccco3)N3CCc4ccccc4C3)cc12 (stereo not drawn) | – | inconclusive: 27.5%
COc1ccc(-n2c(=O)c(CCc3ccccc3)nc3cnc(N(C)C)nc32)cc1 | – | inactive: -4.38%
